Data as given in PubChem BioAssay AID504804 (Drosophila RNAi Screening Center, 2011)
The deposit covers about 19,000 reagents; this is a random part of those that have a named target and a result. Of all reagents, 47 (0.25%) are marked active. 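Signals are raw, not normalised; exact z-scores behind calls not deposited; actives needed confirmation, so some wells reaching 2 SD are inactive.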

Test: 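Fly genes whose loss lessens doxorubicin-driven cell death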 (primary screen)
Cell system: Drosophila Kc cells
Reagent: long dsRNA against Drosophila genes, 0.5 µg dsRNA per well
Time to read-out: 96 h (48 h knock-down, then 48 h drug)
Treatment: doxorubicin 5 µg/ml for 48 h, added 48 h after dsRNA
Detection: 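Viability measured as cellular ATP by luminescence after 48 h knock-down then 48 h doxorubicin at 5 µg/ml; unnormalised plate counts for each replicate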
Reading the numbers: raw ATP luminescence: higher = more viable cells, protection from doxorubicin
Call rule: 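Active when both duplicate wells lie at least 2 SD above the plate mean and protection is confirmed by rescreening and independent dsRNAs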

Target gene	dsRNA	raw ATP luminescence, replicate 1	raw ATP luminescence, replicate 2	Outcome
Syx7 (GeneID 36173)	DRSC11763	20560	22610	inactive
Rbp1-like (GeneID 32293)	DRSC19828	3.47e5	3.60e5	inactive
Lsp1gamma (GeneID 38015)	DRSC08672	85990	65673	inactive
l(2)dtl (GeneID 46326)	DRSC04697	67230	51863	inactive
CG18765 (GeneID 59149)	DRSC15392	57783	49210	inactive
CG11529 (GeneID 39395)	DRSC09839	73930	64663	inactive
Tomosyn (GeneID 32217)	DRSC19692	3.38e5	3.54e5	inactive
Tomosyn (GeneID 32217)	DRSC19842	4.31e5	4.52e5	inactive
CG18088 (GeneID 34219)	DRSC02654	41370	75943	inactive
pncr004:X (retired record) (GeneID 3772236)	DRSC19295	1.72e5	1.85e5	inactive
Alp11 (GeneID 32496)	DRSC20080	3.80e5	3.04e5	inactive
CG17568 (GeneID 35198)	DRSC02628	76247	78983	inactive
lwr (GeneID 33226)	DRSC00828	1.06e5	85277	inactive
CG4768 (GeneID 32666)	DRSC19917	1.77e5	1.87e5	inactive
boi (GeneID 31229)	DRSC18425	54330	60340	inactive
boi (GeneID 31229)	DRSC18598	56630	57370	inactive
Max (GeneID 40095)	DRSC11218	24873	22417	inactive
Inos (GeneID 35671)	DRSC07655	43243	74150	inactive
Rbp (GeneID 41880)	DRSC15724	42250	36280	inactive
Rbp (GeneID 41880)	DRSC15726	84900	50620	inactive
Smox (GeneID 31738)	DRSC18716	43370	47370	inactive
CG1941 (GeneID 35718)	DRSC06802	53857	82933	inactive
Xe7 (GeneID 40699)	DRSC12307	1.07e5	61000	inactive
CG34330 (GeneID 2768869)	DRSC20043	3.68e5	3.08e5	inactive
Ccp84Aa (GeneID 40825)	DRSC12586	68930	70613	inactive
NC2beta (GeneID 34875)	DRSC01895	1.03e5	56533	inactive
ETH (GeneID 44125)	DRSC04612	33670	63870	inactive
Snr1 (GeneID 40657)	DRSC12369	64173	30603	inactive
RhoGAP15B (GeneID 32686)	DRSC19925	3.24e5	2.59e5	inactive
Rox8 (GeneID 42848)	DRSC16829	67970	68850	inactive
Unc-115a (GeneID 261629)	DRSC12749	68137	49900	inactive
Tctp (GeneID 41341)	DRSC15649	54083	52490	inactive
CG42784 (GeneID 326165)	DRSC02534	1.05e5	74037	inactive
CG42784 (GeneID 326165)	DRSC02535	28633	34183	inactive
